The list shows a part of the results.
Assays:
Assay in all cases: log2 fold change, soluble protein after heating vs DMSO (PISA); higher = thermal stabilisation; K562 lysate, 10 uM; active = over 0.2 and 3.5 SD of the protein, either way, in both replicates (recomputed)
[1] = compound: Cc1sc2c(c1C)C(c1ccc(Cl)cc1)=N[C@@H](CC(=O)OC(C)(C)C)c1nnc(C)n1-2
In short: (§1)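 Log-two fold change in thermal stability relative to solvent controls is reported from duplicates. For each sample, crude K562 extract from dounce-homogenised pellets in PBS pH 7.4 with 1 mM MgCl2, at 1 mg/mL protein, was treated with 10 μM compound for 30 min. Aliquots heated for 3 min across 48°C-58°C were pooled, brought to 0.5% NP-40 at 4°C and cleared at 21,000xg for 90 min. The supernatant was quantified by TMTpro 16plex LC-MS/MS with channel sums equalised.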

Amino acid sequences for entries named in this document (tags omitted). A change or cut given only in a name is not applied to a line headed by its entry.
UniProt P53804: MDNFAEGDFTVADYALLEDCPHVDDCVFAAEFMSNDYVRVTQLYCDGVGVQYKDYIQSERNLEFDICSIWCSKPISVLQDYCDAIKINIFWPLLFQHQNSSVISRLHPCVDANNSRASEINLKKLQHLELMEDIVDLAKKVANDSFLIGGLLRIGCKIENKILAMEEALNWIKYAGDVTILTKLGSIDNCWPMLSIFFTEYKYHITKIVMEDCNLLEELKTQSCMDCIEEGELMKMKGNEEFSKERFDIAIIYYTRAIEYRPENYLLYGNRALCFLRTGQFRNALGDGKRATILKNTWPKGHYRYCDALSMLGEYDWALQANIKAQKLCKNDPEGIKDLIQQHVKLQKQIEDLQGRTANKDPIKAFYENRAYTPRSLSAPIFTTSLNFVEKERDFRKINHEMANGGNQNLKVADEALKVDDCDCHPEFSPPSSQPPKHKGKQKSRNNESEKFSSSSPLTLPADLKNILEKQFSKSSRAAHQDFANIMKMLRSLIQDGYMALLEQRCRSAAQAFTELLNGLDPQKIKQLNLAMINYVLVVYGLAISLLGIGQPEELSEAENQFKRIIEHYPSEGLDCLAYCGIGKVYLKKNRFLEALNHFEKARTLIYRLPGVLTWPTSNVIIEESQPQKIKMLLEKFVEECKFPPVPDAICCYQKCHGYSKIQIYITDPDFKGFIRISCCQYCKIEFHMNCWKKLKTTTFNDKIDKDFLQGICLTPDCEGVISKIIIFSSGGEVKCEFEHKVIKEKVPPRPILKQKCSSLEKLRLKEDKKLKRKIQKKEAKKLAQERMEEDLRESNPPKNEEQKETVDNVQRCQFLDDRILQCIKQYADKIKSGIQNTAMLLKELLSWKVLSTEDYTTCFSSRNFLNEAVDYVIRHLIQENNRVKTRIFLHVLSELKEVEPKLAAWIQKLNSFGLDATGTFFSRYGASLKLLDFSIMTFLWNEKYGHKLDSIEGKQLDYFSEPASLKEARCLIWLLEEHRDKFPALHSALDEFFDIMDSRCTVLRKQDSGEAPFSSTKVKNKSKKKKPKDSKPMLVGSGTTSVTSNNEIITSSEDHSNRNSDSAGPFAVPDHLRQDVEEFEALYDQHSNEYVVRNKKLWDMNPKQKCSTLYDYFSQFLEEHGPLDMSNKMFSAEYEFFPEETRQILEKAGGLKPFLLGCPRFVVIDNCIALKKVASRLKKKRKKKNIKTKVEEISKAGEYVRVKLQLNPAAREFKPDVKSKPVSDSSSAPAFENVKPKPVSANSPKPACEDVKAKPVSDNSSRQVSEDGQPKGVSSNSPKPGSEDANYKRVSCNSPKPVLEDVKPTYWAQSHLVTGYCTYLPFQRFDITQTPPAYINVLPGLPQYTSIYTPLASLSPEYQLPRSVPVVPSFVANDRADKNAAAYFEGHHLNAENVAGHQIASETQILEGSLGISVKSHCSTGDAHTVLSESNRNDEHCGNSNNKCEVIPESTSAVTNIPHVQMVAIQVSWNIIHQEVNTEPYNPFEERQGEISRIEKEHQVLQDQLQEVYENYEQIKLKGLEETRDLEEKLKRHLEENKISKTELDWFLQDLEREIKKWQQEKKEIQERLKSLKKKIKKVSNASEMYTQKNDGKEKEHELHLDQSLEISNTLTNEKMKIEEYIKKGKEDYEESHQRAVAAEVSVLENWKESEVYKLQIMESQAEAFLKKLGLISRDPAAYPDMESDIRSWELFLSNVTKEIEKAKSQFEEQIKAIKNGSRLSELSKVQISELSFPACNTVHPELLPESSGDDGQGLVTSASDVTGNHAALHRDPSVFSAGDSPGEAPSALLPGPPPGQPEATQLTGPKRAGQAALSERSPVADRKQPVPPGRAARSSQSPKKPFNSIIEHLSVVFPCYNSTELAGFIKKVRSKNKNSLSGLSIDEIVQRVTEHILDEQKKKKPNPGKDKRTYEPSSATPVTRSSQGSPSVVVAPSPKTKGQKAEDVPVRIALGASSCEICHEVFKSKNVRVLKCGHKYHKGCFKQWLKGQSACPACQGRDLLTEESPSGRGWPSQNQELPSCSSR
UniProt Q12931: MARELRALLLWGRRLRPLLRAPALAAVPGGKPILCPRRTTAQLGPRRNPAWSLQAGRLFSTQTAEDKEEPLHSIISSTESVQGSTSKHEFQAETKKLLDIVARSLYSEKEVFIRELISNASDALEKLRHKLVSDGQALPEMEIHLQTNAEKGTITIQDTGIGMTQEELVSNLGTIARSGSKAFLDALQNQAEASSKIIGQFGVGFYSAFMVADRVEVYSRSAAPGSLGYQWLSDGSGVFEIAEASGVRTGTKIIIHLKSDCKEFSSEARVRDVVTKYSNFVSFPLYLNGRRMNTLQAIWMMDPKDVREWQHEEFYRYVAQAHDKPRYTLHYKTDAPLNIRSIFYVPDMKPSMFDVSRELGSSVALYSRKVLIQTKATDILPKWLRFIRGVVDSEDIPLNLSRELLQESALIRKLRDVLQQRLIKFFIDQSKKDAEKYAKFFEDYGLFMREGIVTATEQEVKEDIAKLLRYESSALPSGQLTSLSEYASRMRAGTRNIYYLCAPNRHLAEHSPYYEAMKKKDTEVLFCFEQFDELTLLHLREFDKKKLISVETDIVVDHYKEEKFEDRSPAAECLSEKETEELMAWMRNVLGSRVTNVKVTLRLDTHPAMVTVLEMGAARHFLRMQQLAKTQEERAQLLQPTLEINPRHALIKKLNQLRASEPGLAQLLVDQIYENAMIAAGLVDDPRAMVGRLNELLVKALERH
UniProt Q9UJT2: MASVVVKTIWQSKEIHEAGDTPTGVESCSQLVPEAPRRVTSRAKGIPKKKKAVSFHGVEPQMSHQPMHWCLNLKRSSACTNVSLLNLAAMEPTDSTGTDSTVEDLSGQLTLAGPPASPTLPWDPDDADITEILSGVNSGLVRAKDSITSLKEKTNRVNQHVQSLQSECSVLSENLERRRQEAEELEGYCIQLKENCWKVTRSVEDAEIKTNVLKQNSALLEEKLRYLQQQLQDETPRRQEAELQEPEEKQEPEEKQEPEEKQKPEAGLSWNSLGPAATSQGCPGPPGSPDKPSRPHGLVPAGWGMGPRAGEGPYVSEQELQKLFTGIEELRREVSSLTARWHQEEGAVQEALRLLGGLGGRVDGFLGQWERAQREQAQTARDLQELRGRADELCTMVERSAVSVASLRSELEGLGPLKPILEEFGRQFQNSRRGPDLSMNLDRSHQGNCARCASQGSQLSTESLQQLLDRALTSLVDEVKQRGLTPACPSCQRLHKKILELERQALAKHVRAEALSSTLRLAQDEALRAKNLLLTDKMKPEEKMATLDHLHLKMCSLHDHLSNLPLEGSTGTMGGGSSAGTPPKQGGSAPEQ
UniProt P43897: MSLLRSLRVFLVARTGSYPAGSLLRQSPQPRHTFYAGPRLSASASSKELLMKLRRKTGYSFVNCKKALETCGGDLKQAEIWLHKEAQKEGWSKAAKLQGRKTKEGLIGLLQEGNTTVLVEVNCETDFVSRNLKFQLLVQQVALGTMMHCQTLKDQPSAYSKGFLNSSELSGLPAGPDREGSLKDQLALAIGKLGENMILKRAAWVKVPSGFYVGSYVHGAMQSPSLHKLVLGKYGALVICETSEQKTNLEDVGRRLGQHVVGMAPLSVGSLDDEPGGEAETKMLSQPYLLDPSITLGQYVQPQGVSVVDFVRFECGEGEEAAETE
UniProt O14817: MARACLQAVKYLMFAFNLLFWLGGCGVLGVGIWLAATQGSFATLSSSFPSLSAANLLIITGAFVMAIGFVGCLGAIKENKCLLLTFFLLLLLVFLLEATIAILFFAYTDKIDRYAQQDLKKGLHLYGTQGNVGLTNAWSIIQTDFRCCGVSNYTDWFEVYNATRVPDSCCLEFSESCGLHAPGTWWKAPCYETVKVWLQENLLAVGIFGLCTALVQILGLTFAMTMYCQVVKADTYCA
UniProt O43734: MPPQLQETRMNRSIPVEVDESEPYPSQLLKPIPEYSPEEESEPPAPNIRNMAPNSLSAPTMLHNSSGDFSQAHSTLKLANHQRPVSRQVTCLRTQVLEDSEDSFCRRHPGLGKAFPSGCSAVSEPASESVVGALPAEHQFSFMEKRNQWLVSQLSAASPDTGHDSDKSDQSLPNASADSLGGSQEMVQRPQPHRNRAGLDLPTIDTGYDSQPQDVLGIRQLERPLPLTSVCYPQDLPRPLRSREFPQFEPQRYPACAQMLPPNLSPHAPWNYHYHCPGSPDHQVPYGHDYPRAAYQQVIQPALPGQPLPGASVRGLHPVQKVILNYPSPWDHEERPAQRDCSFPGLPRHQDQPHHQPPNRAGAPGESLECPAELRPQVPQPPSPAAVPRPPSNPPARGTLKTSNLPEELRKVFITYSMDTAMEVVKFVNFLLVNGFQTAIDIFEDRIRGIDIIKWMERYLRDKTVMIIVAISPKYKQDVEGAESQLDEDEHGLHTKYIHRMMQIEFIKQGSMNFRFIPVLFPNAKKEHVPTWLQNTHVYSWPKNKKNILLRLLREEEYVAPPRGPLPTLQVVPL
UniProt Q9H0U9: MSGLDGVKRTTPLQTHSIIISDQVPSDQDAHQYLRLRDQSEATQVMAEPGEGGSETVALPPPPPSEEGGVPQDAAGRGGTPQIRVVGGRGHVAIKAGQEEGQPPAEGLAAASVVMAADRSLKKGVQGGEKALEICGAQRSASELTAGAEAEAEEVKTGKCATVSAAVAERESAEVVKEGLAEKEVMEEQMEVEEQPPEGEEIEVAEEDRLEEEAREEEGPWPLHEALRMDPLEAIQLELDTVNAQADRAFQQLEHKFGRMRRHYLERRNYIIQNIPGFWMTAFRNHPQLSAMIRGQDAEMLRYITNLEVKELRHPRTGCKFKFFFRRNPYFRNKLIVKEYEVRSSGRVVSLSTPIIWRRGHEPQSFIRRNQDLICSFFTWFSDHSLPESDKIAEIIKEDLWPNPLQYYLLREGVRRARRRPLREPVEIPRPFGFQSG
UniProt Q8WV44: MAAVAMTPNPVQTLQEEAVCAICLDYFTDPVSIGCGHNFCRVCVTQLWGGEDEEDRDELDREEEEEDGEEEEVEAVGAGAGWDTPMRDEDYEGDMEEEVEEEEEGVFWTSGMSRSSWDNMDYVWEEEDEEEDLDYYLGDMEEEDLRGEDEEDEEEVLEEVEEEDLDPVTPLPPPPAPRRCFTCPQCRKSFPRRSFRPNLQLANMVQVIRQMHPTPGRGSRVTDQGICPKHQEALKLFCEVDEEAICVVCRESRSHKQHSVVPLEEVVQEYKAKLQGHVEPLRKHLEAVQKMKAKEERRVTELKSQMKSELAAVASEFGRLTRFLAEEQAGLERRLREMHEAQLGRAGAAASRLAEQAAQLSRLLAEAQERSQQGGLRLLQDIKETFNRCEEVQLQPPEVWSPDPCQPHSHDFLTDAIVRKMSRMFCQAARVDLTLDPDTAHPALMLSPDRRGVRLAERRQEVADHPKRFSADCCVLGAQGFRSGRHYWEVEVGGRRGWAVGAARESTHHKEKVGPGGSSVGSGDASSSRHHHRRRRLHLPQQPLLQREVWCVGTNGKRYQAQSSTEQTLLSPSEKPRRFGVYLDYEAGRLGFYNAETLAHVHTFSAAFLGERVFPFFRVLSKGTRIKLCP
UniProt O94972: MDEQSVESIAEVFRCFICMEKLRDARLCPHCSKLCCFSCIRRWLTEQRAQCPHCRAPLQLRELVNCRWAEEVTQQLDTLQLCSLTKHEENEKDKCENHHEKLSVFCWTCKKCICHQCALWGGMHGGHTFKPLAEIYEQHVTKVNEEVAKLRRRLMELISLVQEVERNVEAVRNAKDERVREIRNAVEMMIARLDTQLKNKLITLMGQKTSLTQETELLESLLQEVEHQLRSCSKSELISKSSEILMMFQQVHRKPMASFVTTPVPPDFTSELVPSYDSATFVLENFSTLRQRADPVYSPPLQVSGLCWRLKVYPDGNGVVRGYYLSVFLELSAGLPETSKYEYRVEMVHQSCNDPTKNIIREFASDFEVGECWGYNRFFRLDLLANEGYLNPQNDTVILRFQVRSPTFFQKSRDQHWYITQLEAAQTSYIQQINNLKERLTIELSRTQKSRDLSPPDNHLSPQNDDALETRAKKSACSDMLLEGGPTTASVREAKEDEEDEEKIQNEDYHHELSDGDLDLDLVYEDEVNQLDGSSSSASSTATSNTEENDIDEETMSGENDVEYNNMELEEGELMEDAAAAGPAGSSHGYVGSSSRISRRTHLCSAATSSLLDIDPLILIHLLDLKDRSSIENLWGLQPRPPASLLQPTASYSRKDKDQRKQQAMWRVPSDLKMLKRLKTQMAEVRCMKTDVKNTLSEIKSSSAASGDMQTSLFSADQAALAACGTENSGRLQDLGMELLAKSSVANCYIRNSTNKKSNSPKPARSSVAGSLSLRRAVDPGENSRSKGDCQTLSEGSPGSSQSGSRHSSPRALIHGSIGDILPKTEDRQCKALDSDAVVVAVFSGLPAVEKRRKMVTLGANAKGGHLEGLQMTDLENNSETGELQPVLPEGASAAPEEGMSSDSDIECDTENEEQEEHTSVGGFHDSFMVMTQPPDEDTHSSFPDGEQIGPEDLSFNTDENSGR
UniProt O43715: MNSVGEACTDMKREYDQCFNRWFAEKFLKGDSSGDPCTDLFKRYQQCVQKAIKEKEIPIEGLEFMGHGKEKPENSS

[2] = compound: C1=CC=C(C=C1)[C@H](COC2=CC3=C(C=C2)NC(=O)N3)NC(=O)C4=CC=CN(C4=O)CC5=CC(=C(C=C5)F)F
In short: as §1

[3] = compound: CC1=C(SC2=C1C(=N[C@H](C3=NN=C(N32)C)CC(=O)N)C4=CC=C(C=C4)Cl)C
In short: as §1

[4] = compound: CC1=C2C(=CC=C1)N=C(N(C2=O)C3=CC=CC=C3C)CN4C=NC5=C(N=CN=C54)N
In short: as §1

[5] = compound: c1ccc([C@@H]2C[C@H]2NC2CCNCC2)cc1
In short: as §1

Row | Target | log2 fold change [1] | log2 fold change [2] | log2 fold change [3] | log2 fold change [4] | log2 fold change [5]
1 | TTC3 (UniProt P53804) | inactive: 0.072 | – | – | – | –
2 | TRAP1 (UniProt Q12931) | inactive: 0.042 | inactive: -0.007 | inactive: 0.021 | inactive: 0.006 | inactive: 0.035
3 | TTC30B (UniProt Q8N4P2) | – | – | – | inactive: 0.027 | inactive: 0.157
4 | TTLL12 (UniProt V9GY16) | – | inactive: 0.022 | inactive: 0.606 | inactive: 0.066 | inactive: -0.065
5 | TRIM3 (UniProt O75382) | – | – | – | inactive: 0.197 | –
6 | TSEN15 (UniProt Q8WW01) | inactive: 0.021 | inactive: -0.044 | inactive: -0.101 | inactive: -0.019 | inactive: -0.004
7 | TSKS (UniProt Q9UJT2) | inactive: 0.034 | – | – | inactive: 0.038 | inactive: 0.106
8 | TSFM (UniProt P43897) | inactive: 0.066 | inactive: 0.006 | inactive: 0.007 | inactive: 0.027 | inactive: -0.092
9 | TRDMT1 (UniProt O14717) | inactive: -0.177 | – | – | inactive: -0.224 | –
10 | TRPM4 (UniProt Q8TD43) | inactive: -0.042 | inactive: -0.074 | inactive: 0.114 | – | inactive: -0.354
11 | TRIM38 (UniProt O00635) | inactive: -0.015 | inactive: 0.087 | inactive: 0.006 | inactive: -0.014 | inactive: 0.021
12 | TSPAN4 (UniProt O14817) | – | – | – | inactive: 0.042 | –
13 | TSEN15, A0A2U3TZM3 | inactive: -0.411 | – | – | inactive: 0.122 | inactive: 0.067
14 | TRAF3IP2 (UniProt O43734) | – | – | – | inactive: -0.087 | inactive: 0.081
15 | TRMT10B (UniProt Q6PF06) | – | – | – | – | inactive: 0.07
16 | TSPYL1 (UniProt Q9H0U9) | inactive: -0.072 | inactive: -0.014 | inactive: -0.08 | – | inactive: -0.034
17 | TSPYL2 (UniProt Q9H2G4) | inactive: -0.066 | – | – | – | inactive: 0.062
18 | TRIM27 (UniProt P14373) | – | inactive: 0.01 | inactive: -0.011 | inactive: 0.022 | inactive: -0.087
19 | TTC26 | inactive: -0.15 | – | – | – | inactive: -0.134
20 | TRIM16 (UniProt O95361) | inactive: -0.108 | – | – | – | –
21 | TRIM41 (UniProt Q8WV44) | inactive: 0.177 | – | – | inactive: -0.089 | inactive: 0.055
22 | TRPS1 isoform 2 (UniProt Q9UHF7) | inactive: 0.078 | – | – | – | inactive: -0.404
23 | TSPAN3 (UniProt O60637) | inactive: 0.006 | – | – | inactive: 0.174 | inactive: 0.16
24 | TRIM47 (UniProt Q96LD4) | inactive: -0.193 | – | – | inactive: 0.032 | inactive: -0.012
25 | TST (UniProt Q16762) | inactive: 0.057 | inactive: 0.008 | inactive: 0.037 | inactive: -0.02 | inactive: 0.057
26 | TSPYL6 (UniProt Q8N831) | inactive: 0.032 | – | – | – | –
27 | TRIM37 (UniProt O94972) | inactive: 0 | – | – | – | –
28 | TRPM7 (UniProt Q96QT4) | inactive: -0.11 | – | – | inactive: 0.185 | inactive: 0.176
29 | TRIAP1 (UniProt O43715) | inactive: -0.029 | – | – | inactive: -0.06 | inactive: 0.202
30 | TRIT1 (UniProt Q9H3H1) | inactive: -0.07 | inactive: -0.029 | inactive: -0.088 | inactive: 0.025 | inactive: 0.037

Copied from the listing (seven entries):
Row | Target | log2 fold change [1] | log2 fold change [2] | log2 fold change [3] | log2 fold change [4] | log2 fold change [5]
13 | TSEN15, A0A2U3TZM3 | inactive: -0.411 | – | – | inactive: 0.122 | inactive: 0.067
14 | TRAF3IP2 (UniProt O43734) | – | – | – | inactive: -0.087 | inactive: 0.081
15 | TRMT10B (UniProt Q6PF06) | – | – | – | – | inactive: 0.07
16 | TSPYL1 (UniProt Q9H0U9) | inactive: -0.072 | inactive: -0.014 | inactive: -0.08 | – | inactive: -0.034
17 | TSPYL2 (UniProt Q9H2G4) | inactive: -0.066 | – | – | – | inactive: 0.062
18 | TRIM27 (UniProt P14373) | – | inactive: 0.01 | inactive: -0.011 | inactive: 0.022 | inactive: -0.087
19 | TTC26 | inactive: -0.15 | – | – | – | inactive: -0.134

Source: the supplement of paper PMC10849652
